PubChem BioAssay AID504744 | Drosophila RNAi Screening Center – 2011
The screen tested about 23,000 reagents; this is a random part of those with a known target gene and a result. In the full data, 98 (0.43%) are marked active. 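Only hit calls are given; the phospho-dAkt signals, z-scores and hit direction were not deposited.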 Names joined by + are all predicted targets of the reagent.

- Assay: 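Find genes whose loss alters insulin-driven dAkt phosphorylation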 (primary screen)
- Cell system: Drosophila Kc167 cells
- Reagent: long dsRNA against Drosophila genes, 250 ng dsRNA per well of a 384-well plate
- Time to read-out: 3 days of knock-down, then overnight serum-free starvation before stimulation
- Conditions: bovine insulin at 387 nM for 10 minutes after 12 h without serum
- Read-out: 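Per-well phospho-dAkt level from an in-cell fluorescent antibody stain, divided by a DNA-dye signal; log2 residuals turned into z-scores that take cell number into account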
- Call rule: 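Under insulin, a gene counts as a hit if the average z-score of two replicates lies above 2.5 or below -2.5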

no.	gene	DRSC id	Call
1	CG33722 + CG18749	DRSC12674	inactive
2	CG33722 + CG18749	DRSC15386	inactive
3	GstD8 (Glutathione S transferase D8)	DRSC16689	inactive
4	Cyp4e2 (Cytochrome P450 4e2)	DRSC07371	inactive
5	mats (mob as tumor suppressor)	DRSC13562	inactive
6	mats (mob as tumor suppressor)	DRSC14702	inactive
7	CG34050 (retired record)	DRSC09067	inactive
8	CG1632	DRSC17558	inactive
9	CG1632	DRSC18110	inactive
10	ATP6 (retired record)	DRSC21278	inactive
11	CG6230	DRSC01989	inactive
12	Pgm2a (Phosphoglucomutase 2a)	DRSC07068	inactive
13	ouib (ouija board)	DRSC14376	inactive
14	5-HT7 (5-hydroxytryptamine (serotonin) receptor 7)	DRSC12635	inactive
15	CG12702	DRSC19487	inactive
16	snRNA:U1:95Cc + snRNA:U1:95Cb	DRSC13641	inactive
17	mRpL39 (mitochondrial ribosomal protein L39)	DRSC10255	inactive
18	Mid1	DRSC04230	inactive
19	Mid1	DRSC04231	inactive
20	Mid1	DRSC04308	inactive
21	Mid1	DRSC22773	inactive
22	Mid1	DRSC22803	inactive
23	CG14414	DRSC19599	inactive
24	CG15909	DRSC04977	inactive
25	CG4375	DRSC00653	inactive
26	CG31673	DRSC03207	inactive
27	CCT3 (Chaperonin containing TCP1 subunit 3)	DRSC16602	inactive
28	CG1946	DRSC06804	inactive
29	CG34148 + P5CDh2	DRSC13519	inactive
30	CngA (Cyclic nucleotide-gated ion channel subunit A)	DRSC06580	inactive
31	CngA (Cyclic nucleotide-gated ion channel subunit A)	DRSC07362	inactive
32	AOX2 (Aldehyde oxidase 2)	DRSC15338	inactive
33	daw (dawdle)	DRSC00479	inactive
34	CG4752	DRSC04486	inactive
35	Mpcp2	DRSC11226	inactive
36	C15	DRSC13495	inactive
37	C15	DRSC14169	inactive
38	CG31454	DRSC14365	inactive
39	CG31454	DRSC22801	inactive
40	Rlip (Ral interacting protein)	DRSC16828	inactive
41	phyl (phyllopod)	DRSC07663	inactive
42	GNBP2 (Gram-negative bacteria binding protein 2)	DRSC10404	inactive
43	CG9328	DRSC03203	inactive
44	CG31551	DRSC12159	inactive
45	CG31551	DRSC22403	inactive
46	RpS16 (Ribosomal protein S16)	DRSC04442	inactive
47	Prdm13 (PR/SET domain 13)	DRSC09970	inactive
48	CG31663	DRSC00078	inactive
49	CG31663	DRSC00389	inactive
50	CG31663	DRSC00390	inactive
51	CG31663	DRSC00393	inactive
52	GCC88 (GRIP and coiled-coil domain containing 88 kDa)	DRSC14264	inactive
53	CG14820	DRSC10191	inactive
54	srp (serpent)	DRSC13125	inactive
55	srp (serpent)	DRSC17068	inactive
56	nAChRbeta3 (nicotinic Acetylcholine Receptor beta3)	DRSC00325	inactive
57	CG10301	DRSC14226	active
58	TwdlR (TweedleR)	DRSC14736	inactive
59	CG8460	DRSC03090	inactive
60	Ance-3	DRSC02648	inactive
61	Ance-3	DRSC02649	inactive
62	CG14957	DRSC08416	inactive
63	Ddx1 (Dead-box-1)	DRSC11862	inactive
64	I-3 (Inhibitor-3)	DRSC20479	inactive
65	TfIIFbeta (Transcription factor TFIIFbeta)	DRSC16884	inactive
66	TfIIFbeta (Transcription factor TFIIFbeta)	DRSC21447	inactive
67	pod1 (pod1 coronin)	DRSC18362	inactive
68	Set8 (SET domain containing 8)	DRSC15473	inactive
69	Sema1b (Semaphorin 1b)	DRSC07550	inactive
70	CG13837	DRSC14687	inactive
71	CG4575 (retired record)	DRSC18372	inactive
72	CG17129	DRSC08508	inactive
73	Kdm3 (Lysine demethylase 3)	DRSC16393	inactive
74	CG14441	DRSC17934	inactive
75	Taz (Tafazzin)	DRSC07704	inactive
76	Taz (Tafazzin)	DRSC22625	inactive
77	Arl8 (ADP ribosylation factor-like 8)	DRSC16334	inactive
78	CG17344	DRSC02607	inactive
79	TyrR (Tyramine receptor)	DRSC16242	inactive
80	Fancl	DRSC14550	inactive
81	ERp60 (Endoplasmic reticulum p60)	DRSC07309	inactive
82	Phae1 (Phaedra 1)	DRSC02554	inactive
83	Trs23 (TRAPP subunit 23)	DRSC03190	inactive
84	Dhc93AB (Dynein heavy chain at 93AB)	DRSC16644	inactive
85	tau	DRSC14569	inactive
86	Kah (Kahuli)	DRSC07887	inactive
87	Kah (Kahuli)	DRSC08515	inactive
88	CG31195	DRSC13440	inactive
89	CG7079	DRSC16192	inactive
90	CG8031	DRSC16364	inactive
91	CG5597	DRSC04517	inactive
92	Tb (Tubby)	DRSC15815	inactive
93	qkr58E-2 (quaking related 58E-2)	DRSC04710	inactive
94	CG6974	DRSC16160	inactive
95	Kap-alpha3 (karyopherin alpha3)	DRSC16976	inactive
96	sinu (sinuous)	DRSC09752	inactive
97	CG6652	DRSC10686	inactive
98	sut4 (sugar transporter 4)	DRSC07703	inactive
99	PlexB (Plexin B)	DRSC17177	inactive
100	CG5793	DRSC15874	inactive
101	lky (leaky)	DRSC20682	inactive
102	HGTX	DRSC09319	inactive
103	HGTX	DRSC11181	inactive
104	CG31097	DRSC14666	inactive
105	fliI (flightless I)	DRSC20578	active
106	Diap1 (Death-associated inhibitor of apoptosis 1)	DRSC11404	inactive
107	CG7763	DRSC07043	inactive
108	h-cup (heineken-cup)	DRSC15973	inactive
109	Pu (Punch)	DRSC04645	inactive
110	Acsf2 (Acyl-CoA synthetase family member 2)	DRSC02172	inactive
111	chif (chiffon)	DRSC03508	inactive
112	y (yellow)	DRSC18853	inactive
113	Spn28Dc (Serpin 28Dc)	DRSC03029	inactive
114	tub (tube)	DRSC12389	inactive
115	tub (tube)	DRSC22800	inactive
116	CG7368	DRSC10826	inactive
117	CG7368	DRSC22821	inactive
118	c11.1	DRSC18749	inactive
119	CG6834	DRSC16125	inactive
120	yip3 (yippee interacting protein 3)	DRSC04724	inactive
121	CG3032	DRSC18266	inactive
122	nolo (no long nerve cord)	DRSC03705	inactive
123	nolo (no long nerve cord)	DRSC03719	inactive
124	nolo (no long nerve cord)	DRSC03720	inactive
125	CG17919	DRSC12571	inactive
126	CG17562	DRSC15243	inactive
127	St4 (Sulfotransferase 4)	DRSC07008	inactive
128	Hrb27C (Heterogeneous nuclear ribonucleoprotein at 27C)	DRSC03347	inactive
129	CG9674	DRSC11088	inactive
130	CG9674	DRSC11089	inactive
131	Ance-5	DRSC04055	inactive
132	Ccz1 (Caffeine, calcium, zinc sensitivity 1)	DRSC08439	inactive
133	Arc1 (Activity-regulated cytoskeleton associated protein 1)	DRSC06159	inactive
134	Targ (Tarag)	DRSC06206	inactive
135	cnk (connector enhancer of ksr)	DRSC07595	inactive
136	Tmem63 (Transmembrane protein 63)	DRSC06063	inactive
137	CG33301	DRSC02778	inactive
138	CG15332	DRSC18015	inactive
139	Tsp42Ea (Tetraspanin 42Ea)	DRSC04982	inactive
140	Tsp42Ea (Tetraspanin 42Ea)	DRSC06792	inactive
141	CG33309	DRSC01421	inactive
142	CG42827 + CG42828	DRSC16116	inactive
143	sinah (sina homologue)	DRSC09910	inactive
144	sinah (sina homologue)	DRSC22181	inactive
145	Porin2	DRSC02584	inactive
146	Girdin	DRSC08292	inactive
147	CG18278 + CG30059	DRSC05418	inactive
148	CG32812	DRSC18478	inactive
149	Nadsyn (NAD synthetase)	DRSC20222	inactive
150	Rbcn-3B (Rabconnectin-3B)	DRSC18574	inactive
151	CG2930	DRSC17730	inactive
152	Mip (Myoinhibiting peptide precursor)	DRSC10639	inactive
153	CG43861 + CG12508 (retired record)	DRSC02170	inactive
154	CG4511	DRSC15589	inactive
155	Tbcd (Tubulin-binding cofactor D)	DRSC00273	inactive
156	DNAlig1 (DNA ligase 1)	DRSC04518	inactive
157	CG12016 + Dpm2	DRSC08224	inactive
